Results from patent US20260109776A1.
No constants are given. Whether binding was seen depends on the method and setting. Some results given as binding are weak or reduced against the parent protein; the word gives no strength.

Sequences of proteins named here, by UniProt entry; tags and fusion partners are left off. A change or cut given only in a name is not applied to a line headed by its entry.
UniProt Q13421: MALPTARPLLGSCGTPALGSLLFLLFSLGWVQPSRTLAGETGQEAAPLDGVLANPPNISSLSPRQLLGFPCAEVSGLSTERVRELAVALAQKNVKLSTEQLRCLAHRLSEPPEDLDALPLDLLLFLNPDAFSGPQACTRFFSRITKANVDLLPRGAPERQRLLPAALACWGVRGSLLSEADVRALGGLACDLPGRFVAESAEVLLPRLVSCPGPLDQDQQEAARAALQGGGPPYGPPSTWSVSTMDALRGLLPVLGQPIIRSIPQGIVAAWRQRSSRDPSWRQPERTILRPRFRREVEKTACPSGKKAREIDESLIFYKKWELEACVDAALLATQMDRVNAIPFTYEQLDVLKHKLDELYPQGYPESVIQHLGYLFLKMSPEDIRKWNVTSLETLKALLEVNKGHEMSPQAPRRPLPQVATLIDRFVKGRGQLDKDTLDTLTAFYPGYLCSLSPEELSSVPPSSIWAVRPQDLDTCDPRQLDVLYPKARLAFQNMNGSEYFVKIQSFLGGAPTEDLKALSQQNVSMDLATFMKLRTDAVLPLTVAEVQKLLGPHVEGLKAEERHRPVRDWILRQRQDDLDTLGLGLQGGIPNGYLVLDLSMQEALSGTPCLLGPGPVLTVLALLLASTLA

Biological target: soluble recombinant human mesothelin (human) (UniProt Q13421)
Test: Octet, soluble recombinant mesothelin

binding: binds
B1: 4H6 (antibody, human IgG1, V domains shown)
VH: QVQLVESGGGLVKPGGSLRLSCAASGFTFSDYYMTWIRQAPGKGLEWISYISSSGSTIYYADSVKGRFTISRDNAKNSLYLQMNSLRAEDTAVYYCARDRNSHFDYWGQGTLVTVSS
VL: DIQMTQSPSSVSASVGDRVTITCRASQGITRWLAWYQQKPGKAPKLLIYAASVLQSGVPSRFSGSGSGTDFTLTISSLQPEDFATYYCQQSNSFPRTFGQGTKVEIK
